Assay results published in the supplement of paper PMC10849652.
Some of the results follow.

Amino acid sequences for entries named in this document (tags omitted). A change or cut given only in a name is not applied to a line headed by its entry.
UniProt Q9BQ04: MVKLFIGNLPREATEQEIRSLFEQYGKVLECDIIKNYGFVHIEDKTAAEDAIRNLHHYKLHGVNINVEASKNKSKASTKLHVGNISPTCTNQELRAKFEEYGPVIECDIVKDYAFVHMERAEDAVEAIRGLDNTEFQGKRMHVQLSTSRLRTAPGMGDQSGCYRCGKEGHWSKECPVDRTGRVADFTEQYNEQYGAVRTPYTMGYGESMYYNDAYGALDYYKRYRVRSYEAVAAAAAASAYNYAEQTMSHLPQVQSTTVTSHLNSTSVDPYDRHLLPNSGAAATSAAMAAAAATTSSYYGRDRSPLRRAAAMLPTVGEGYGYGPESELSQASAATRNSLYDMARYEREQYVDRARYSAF
UniProt O75884: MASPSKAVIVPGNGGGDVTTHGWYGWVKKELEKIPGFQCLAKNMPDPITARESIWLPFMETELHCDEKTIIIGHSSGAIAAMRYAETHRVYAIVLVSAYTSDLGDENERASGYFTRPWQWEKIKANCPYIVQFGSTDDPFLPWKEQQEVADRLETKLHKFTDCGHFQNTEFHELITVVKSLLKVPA
UniProt Q96IZ5: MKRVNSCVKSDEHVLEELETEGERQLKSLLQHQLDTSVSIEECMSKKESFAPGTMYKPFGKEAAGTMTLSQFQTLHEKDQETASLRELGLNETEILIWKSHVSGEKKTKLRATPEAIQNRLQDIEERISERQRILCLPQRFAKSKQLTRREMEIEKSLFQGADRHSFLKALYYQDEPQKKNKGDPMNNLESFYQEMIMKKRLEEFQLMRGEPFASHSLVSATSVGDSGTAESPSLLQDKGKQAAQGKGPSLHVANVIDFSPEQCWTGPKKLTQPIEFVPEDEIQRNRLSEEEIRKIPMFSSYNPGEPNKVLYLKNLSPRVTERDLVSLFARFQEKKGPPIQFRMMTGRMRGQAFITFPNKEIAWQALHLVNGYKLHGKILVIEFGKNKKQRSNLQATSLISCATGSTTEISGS
UniProt Q8IZ40: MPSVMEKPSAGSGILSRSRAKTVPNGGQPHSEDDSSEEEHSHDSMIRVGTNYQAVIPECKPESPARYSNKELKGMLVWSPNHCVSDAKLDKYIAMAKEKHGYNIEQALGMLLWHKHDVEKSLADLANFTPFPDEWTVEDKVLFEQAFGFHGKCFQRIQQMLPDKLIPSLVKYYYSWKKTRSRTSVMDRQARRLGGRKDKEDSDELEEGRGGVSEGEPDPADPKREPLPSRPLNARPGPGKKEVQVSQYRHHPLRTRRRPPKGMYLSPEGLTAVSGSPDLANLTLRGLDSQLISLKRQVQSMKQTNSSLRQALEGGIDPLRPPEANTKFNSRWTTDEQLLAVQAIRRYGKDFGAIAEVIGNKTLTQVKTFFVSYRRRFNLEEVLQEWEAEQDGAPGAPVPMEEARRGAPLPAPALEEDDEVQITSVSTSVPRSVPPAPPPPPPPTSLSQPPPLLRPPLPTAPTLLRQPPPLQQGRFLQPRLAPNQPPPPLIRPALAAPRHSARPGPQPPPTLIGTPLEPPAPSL
UniProt P48378: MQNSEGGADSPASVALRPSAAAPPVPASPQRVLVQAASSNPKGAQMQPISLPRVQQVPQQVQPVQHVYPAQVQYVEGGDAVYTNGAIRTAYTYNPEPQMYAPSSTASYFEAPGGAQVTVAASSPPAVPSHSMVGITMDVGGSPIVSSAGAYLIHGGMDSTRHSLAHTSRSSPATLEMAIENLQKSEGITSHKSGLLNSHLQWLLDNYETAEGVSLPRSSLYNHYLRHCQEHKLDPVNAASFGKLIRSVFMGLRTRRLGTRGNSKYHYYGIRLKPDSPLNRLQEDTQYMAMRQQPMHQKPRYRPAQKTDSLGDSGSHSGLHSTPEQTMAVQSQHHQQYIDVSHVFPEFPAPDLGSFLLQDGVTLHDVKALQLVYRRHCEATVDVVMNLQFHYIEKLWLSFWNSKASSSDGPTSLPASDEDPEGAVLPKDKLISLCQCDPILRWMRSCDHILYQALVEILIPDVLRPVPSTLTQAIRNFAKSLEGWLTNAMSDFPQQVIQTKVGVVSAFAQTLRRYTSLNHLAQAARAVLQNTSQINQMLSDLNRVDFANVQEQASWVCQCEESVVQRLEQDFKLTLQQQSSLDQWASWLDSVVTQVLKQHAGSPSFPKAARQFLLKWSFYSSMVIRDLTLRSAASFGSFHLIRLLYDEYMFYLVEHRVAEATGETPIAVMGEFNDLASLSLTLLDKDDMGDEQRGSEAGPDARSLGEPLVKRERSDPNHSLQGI
UniProt Q5RL73: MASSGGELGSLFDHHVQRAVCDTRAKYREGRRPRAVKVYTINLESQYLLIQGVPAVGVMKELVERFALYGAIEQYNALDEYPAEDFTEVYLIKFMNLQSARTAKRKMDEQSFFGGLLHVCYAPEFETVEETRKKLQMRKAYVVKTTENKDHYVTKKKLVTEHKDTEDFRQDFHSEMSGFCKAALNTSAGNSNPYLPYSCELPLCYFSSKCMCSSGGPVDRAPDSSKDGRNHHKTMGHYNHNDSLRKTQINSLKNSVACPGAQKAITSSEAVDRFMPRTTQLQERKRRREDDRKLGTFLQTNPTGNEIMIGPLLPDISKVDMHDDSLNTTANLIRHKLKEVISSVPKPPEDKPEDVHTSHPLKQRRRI
UniProt Q9Y3P4: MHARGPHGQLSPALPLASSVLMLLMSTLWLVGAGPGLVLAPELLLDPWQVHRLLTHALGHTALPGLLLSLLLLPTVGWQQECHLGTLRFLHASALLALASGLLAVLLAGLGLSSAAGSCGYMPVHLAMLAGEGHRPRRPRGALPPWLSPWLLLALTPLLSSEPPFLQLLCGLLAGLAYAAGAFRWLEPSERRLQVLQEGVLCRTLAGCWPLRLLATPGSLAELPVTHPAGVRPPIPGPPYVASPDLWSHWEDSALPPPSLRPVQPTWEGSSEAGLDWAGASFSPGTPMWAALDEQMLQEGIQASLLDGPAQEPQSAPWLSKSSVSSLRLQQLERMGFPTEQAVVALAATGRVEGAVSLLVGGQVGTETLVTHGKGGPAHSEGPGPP
UniProt O43251: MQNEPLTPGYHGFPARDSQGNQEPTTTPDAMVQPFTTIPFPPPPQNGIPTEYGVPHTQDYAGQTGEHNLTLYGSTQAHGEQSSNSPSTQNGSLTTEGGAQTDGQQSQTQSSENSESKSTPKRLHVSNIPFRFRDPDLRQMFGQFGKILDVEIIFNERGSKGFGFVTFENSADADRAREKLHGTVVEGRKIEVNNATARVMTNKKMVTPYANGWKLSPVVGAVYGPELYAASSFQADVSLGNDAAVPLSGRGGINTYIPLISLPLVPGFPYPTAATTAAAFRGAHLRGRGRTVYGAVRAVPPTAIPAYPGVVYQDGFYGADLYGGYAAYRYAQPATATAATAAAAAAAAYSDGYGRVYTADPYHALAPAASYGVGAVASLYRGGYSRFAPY
UniProt Q5T481: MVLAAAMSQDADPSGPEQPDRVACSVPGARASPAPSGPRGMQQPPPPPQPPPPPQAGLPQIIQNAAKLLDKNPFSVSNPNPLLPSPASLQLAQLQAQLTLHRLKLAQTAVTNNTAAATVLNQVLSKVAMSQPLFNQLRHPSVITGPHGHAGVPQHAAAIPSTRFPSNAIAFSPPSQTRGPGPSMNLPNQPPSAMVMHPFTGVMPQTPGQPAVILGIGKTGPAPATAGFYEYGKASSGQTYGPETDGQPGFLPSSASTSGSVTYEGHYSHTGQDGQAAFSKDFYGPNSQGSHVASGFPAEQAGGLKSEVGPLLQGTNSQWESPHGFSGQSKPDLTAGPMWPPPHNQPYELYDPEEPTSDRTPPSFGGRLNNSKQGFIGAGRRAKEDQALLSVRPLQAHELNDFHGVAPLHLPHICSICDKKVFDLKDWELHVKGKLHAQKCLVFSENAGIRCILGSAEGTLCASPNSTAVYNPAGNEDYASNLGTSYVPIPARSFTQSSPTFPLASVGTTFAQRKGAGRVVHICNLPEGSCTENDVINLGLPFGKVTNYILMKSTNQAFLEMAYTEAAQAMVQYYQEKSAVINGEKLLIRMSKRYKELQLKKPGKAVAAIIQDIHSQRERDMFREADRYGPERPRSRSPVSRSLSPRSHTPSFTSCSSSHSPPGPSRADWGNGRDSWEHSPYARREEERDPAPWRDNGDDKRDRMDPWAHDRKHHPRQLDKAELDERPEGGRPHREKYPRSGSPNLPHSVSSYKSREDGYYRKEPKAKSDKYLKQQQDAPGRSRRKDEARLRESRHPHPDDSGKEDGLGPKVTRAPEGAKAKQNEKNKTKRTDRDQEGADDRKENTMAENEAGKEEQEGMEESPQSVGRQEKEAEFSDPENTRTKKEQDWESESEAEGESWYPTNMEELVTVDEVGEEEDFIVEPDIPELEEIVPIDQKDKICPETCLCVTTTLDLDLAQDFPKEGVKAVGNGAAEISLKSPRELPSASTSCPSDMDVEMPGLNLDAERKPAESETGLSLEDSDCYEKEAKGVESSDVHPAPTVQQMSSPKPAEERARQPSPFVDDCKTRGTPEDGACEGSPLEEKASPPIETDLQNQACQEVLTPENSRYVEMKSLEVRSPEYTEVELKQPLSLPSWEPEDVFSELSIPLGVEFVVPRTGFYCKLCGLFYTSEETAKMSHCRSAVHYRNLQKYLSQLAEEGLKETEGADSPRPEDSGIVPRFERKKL
UniProt Q96E39: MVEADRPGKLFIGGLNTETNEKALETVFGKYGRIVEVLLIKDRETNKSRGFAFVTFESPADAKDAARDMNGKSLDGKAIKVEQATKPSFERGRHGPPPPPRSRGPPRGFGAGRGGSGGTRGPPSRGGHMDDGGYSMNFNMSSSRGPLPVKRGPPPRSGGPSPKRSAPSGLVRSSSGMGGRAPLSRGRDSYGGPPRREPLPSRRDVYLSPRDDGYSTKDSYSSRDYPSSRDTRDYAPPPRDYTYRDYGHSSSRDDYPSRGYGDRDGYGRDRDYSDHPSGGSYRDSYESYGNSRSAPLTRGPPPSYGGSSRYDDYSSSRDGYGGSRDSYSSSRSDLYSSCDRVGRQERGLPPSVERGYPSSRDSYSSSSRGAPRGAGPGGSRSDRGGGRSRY
UniProt P48380: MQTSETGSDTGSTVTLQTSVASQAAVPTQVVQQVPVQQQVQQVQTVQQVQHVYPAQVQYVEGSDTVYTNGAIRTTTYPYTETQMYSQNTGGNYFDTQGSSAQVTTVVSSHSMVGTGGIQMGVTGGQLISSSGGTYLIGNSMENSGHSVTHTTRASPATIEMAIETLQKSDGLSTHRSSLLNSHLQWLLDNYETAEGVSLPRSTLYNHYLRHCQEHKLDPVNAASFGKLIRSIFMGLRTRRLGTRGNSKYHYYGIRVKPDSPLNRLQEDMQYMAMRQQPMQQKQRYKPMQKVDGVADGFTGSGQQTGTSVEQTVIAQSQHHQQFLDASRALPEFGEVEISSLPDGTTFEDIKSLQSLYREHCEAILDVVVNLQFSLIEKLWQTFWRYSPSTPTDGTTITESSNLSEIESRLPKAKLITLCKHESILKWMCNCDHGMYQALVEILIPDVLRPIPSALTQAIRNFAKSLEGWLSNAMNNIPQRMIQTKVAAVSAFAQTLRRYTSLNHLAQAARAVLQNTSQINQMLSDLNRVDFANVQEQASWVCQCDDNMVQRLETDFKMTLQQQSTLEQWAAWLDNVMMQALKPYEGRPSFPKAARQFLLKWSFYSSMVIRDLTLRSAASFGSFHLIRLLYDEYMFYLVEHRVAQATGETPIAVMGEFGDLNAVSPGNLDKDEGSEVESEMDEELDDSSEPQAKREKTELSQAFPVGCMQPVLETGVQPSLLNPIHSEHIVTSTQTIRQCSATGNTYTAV
UniProt Q6NTF9: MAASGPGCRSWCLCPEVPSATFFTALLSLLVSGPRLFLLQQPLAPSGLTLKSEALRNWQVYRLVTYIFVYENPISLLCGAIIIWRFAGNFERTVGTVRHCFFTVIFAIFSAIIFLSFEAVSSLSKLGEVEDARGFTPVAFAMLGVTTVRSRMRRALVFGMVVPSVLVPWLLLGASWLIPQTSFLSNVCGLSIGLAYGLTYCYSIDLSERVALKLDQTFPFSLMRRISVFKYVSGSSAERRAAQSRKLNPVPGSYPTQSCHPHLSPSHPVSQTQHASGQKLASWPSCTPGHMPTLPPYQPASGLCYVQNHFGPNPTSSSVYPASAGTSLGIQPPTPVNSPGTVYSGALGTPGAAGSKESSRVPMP
UniProt Q8IUH3: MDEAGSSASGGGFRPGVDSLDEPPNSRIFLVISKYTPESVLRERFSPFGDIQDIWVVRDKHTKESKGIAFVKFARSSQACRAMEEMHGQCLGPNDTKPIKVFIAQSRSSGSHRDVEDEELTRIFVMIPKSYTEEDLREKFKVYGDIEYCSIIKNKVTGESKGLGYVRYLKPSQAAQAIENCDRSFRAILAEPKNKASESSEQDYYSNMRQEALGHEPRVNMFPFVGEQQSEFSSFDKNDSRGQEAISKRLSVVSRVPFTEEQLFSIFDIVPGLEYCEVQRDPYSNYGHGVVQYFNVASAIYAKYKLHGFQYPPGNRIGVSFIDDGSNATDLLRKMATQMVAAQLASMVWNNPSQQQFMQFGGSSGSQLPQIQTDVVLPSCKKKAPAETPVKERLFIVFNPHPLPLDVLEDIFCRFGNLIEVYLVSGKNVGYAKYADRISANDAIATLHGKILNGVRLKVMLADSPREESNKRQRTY

Experiments:
Assay in all cases: log2 fold change, soluble protein after heating vs DMSO (PISA); higher = thermal stabilisation; K562 lysate, 10 uM; active = over 0.2 and 3.5 SD of the protein, either way, in both replicates (recomputed)
[1] = compound: CCCS(=O)(=O)Nc1ccc(F)c(C(=O)c2c[nH]c3ncc(Cl)cc23)c1F
How it was run: (§1)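 Following dounce homogenisation of K562 pellets in PBS pH 7.4 with 1 mM MgCl2, crude extract at 1 mg/mL protein was incubated for 30 min with 10 μM compound. Aliquots were then heated for 3 min over 48°C-58°C and pooled, NP-40 was added to 0.5% at 4°C, and soluble protein was recovered as the supernatant at 21,000xg for 90 min. Channel-sum-equalised TMTpro 16plex LC-MS/MS quantified this protein. Each value, from duplicates, is a log-two fold change in thermal stability relative to solvent controls.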

[2] = compound: CC[C@@H]1C(=O)N(C)c2cnc(Nc3ccc(C(=O)N[C@H]4CC[C@H](N5CCN(CC6CC6)CC5)CC4)cc3OC)nc2N1C(C)C [volasertib]
How it was run: as §1

[3] = compound: CCn1c(C(=O)N(C2CC2)C2CC2)cc2c3c(ncn3C)c(Nc3cc(C)n(C)n3)nc21
How it was run: as §1

[4] = compound: CCn1cc(-c2ccnc3[nH]c(-c4cccc(CN(C)C)c4)cc23)c(-c2ccc(NC(=O)N(C)C)cc2)n1
How it was run: as §1

[5] = compound: CN1CCC(CNc2ccc3ncc(-c4cccc(OC(F)(F)F)c4)n3n2)CC1
How it was run: as §1

[6] = compound: CCN(CCCOc1ccc2c(Nc3cc(CC(=O)Nc4cccc(F)c4)[nH]n3)ncnc2c1)CCOP(=O)(O)O [barasertib]
How it was run: as §1

[7] = compound: CN1CCN(c2nc(C3=C(c4c[nH]c5ccccc45)C(=O)NC3=O)c3ccccc3n2)CC1 [sotrastaurin]
How it was run: as §1

[8] = compound: CC[C@@H]1C(=O)N(C)c2cnc(Nc3ccc(C(=O)NC4CCN(C)CC4)cc3OC)nc2N1C1CCCC1
How it was run: as §1

[9] = compound: CN1CCN(CCOc2cc(OC3CCOCC3)c3c(Nc4c(Cl)ccc5c4OCO5)ncnc3c2)CC1 [saracatinib]
How it was run: as §1

[10] = compound: CCCS(=O)(=O)Nc1ccc(F)c(C(=O)c2c[nH]c3ncc(-c4ccc(Cl)cc4)cc23)c1F [vemurafenib]
How it was run: as §1

Measured: log2 fold change

RBBP4 isoform 4 (UniProt Q09028)
inactive: [1] -0.253 | [2] -0.025 | [3] -0.272 | [4] 0.916 | [5] -0.133

RBP4 (UniProt P02753)
inactive: [6] 0.03 | [4] 0.075 | [5] 0.036 | [7] -0.021

RBM4 isoform 3 (UniProt Q9BWF3)
inactive: [7] 0.074

RAVER2 (UniProt Q9HCJ3)
inactive: [8] -0.025 | [3] -0.003 | [4] 0.171 | [5] 0.051 | [9] 0.075 | [7] 0.078

Quoted at random: two records from the list
RBM4 isoform 3 (UniProt Q9BWF3)
inactive: [7] 0.074

RAVER2 (UniProt Q9HCJ3)
inactive: [8] -0.025 | [3] -0.003 | [4] 0.171 | [5] 0.051 | [9] 0.075 | [7] 0.078

Next results follow:

RBM4B (UniProt Q9BQ04)
inactive: [7] -0.053

RCBTB1 (UniProt Q8NDN9)
inactive: [3] -0.126 | [4] -0.022 | [5] 0.119 | [7] -0.195

RECQL4 (UniProt O94761)
inactive: [10] -0.019 | [6] 0.1 | [8] 0.054 | [3] 0.043 | [4] -0.254 | [5] -0.026 | [9] 0.043 | [7] -0.017

RBBP9 (UniProt O75884)
inactive: [10] -0.019 | [6] 0.03 | [3] -0.022 | [7] -0.066

RHD (UniProt Q02161)
inactive: [3] 0.087 | [4] 0.215 | [5] 0.058 | [9] 0.048

RBM12B (UniProt Q8IXT5)
inactive: [6] 0.047 | [3] 0.078

RGPD6 (UniProt H7BZ48)
inactive: [7] -0.009

RBL2 (UniProt Q08999)
inactive: [1] 0.077 | [6] -0.021 | [8] -0.07 | [2] -0.125 | [3] -0.043 | [4] -0.071 | [5] 0.137 | [9] -0.019 | [7] -0.07

RELL1 (UniProt Q8IUW5)
inactive: [7] 0.148

RBFA (UniProt Q8N0V3)
inactive: [3] 0.001 | [4] 0.027 | [5] -0.091 | [7] 0.101

RBM41 (UniProt Q96IZ5)
inactive: [6] 0.05

RCOR2 (UniProt Q8IZ40)
inactive: [3] -0.004

RFX2 (UniProt P48378)
inactive: [1] -0.042 | [6] 0.032 | [2] -0.158 | [4] 0.137 | [5] -0.06 | [9] -0.048 | [7] 0.088

REXO1 (UniProt Q8N1G1)
inactive: [6] 0.167 | [3] 0.183 | [4] -0.334 | [5] -0.007 | [7] -0.003

RGS14 (UniProt O43566)
inactive: [1] 0.015 | [6] 0.016 | [8] 0.189 | [2] -0.117 | [3] 0.009 | [4] -0.243 | [5] 0.05 | [9] 0.01 | [7] -0.017

RBBP4 isoform 2 (UniProt Q09028)
inactive: [1] -0.037 | [6] 0.008 | [2] 0.048

RBM48 isoform 2 (UniProt Q5RL73)
inactive: [10] 0.003 | [8] 0.039 | [3] 0.071 | [4] -0.007 | [5] 0.097 | [9] 0.02 | [7] -0.048

RHBDD3 (UniProt Q9Y3P4)
inactive: [7] -0.055

RGS19 (UniProt P49795)
inactive: [4] 0.192 | [5] 0.124 | [7] 0.157

RBIS (UniProt Q8N0T1)
inactive: [10] 0.028 | [6] -0.076 | [8] 0.115 | [3] 0.049 | [4] -0.082 | [5] 0.106 | [9] -0.044 | [7] 0.006

RBFOX2 isoform 8 (UniProt O43251)
inactive: [1] 0.057 | [6] 0.02 | [8] 0.017 | [2] -0.124 | [3] 0.087 | [4] -0.078 | [5] -0.219 | [9] -0.058 | [7] 0.002

RBM20 (UniProt Q5T481)
inactive: [10] -0.177 | [6] 0.016 | [3] -0.095 | [9] -0.083

RBMXL1 (UniProt Q96E39)
inactive: [10] -0.024 | [8] 0.097 | [9] -0.019 | [7] -0.045

RFX3 (UniProt P48380)
inactive: [6] 0.085 | [8] -0.076 | [4] 0.006 | [5] 0.116 | [9] -0.009

RBKS (UniProt Q9H477)
inactive: [3] -0.027 | [4] 0.013 | [5] 0.104 | [9] 0.039

RGS3 (UniProt P49796)
inactive: [1] -0.052 | [6] 0.105 | [2] -0.019 | [3] -0.243 | [4] -0.196 | [5] 0.108 | [7] 0.034

RHBDD2 isoform 2 (UniProt Q6NTF9)
inactive: [3] -0.051

RGCC (UniProt Q9H4X1)
inactive: [10] 0.025 | [3] -0.056 | [4] 0.015 | [5] -0.211

RBM45 (UniProt Q8IUH3)
inactive: [1] 0.12 | [2] -0.207 | [4] 0.128 | [5] -0.015 | [7] 0.077

RFWD3 (UniProt Q6PCD5)
inactive: [10] -0.073 | [6] 0.004 | [8] -0.011 | [3] -0.062 | [4] -0.087 | [5] -0.055 | [9] -0.036 | [7] -0.017

RASSF7 (UniProt Q02833)
inactive: [6] 0.264 | [4] 0.024 | [5] -0.037 | [7] 0.061

RESF1 (UniProt Q9HCM1)
inactive: [8] -0.003 | [3] 0.012 | [9] 0.034 | [7] -0.022

REX1BD (UniProt Q96EN9)
inactive: [8] 0.1 | [3] 0.012 | [4] 0.07 | [5] 0.177 | [9] 0.113 | [7] -0.082

RBM18 (UniProt Q96H35)
inactive: [10] 0.034 | [8] 0.064 | [3] 0.064 | [4] 0.102 | [5] -0.09

RGL2 (UniProt O15211)
inactive: [1] -0.066 | [2] -0.042 | [3] 0.049 | [4] -0.027 | [5] -0.084 | [9] 0.037 | [7] 0.075
